PubChem BioAssay AID1508600 (Functional Genomics Laboratory (NCATS/FGL), 2020)
Hit rate of the full screen: of about 53,000 sequences, about 3,700 (7%) were called active.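 The calls were made as follows: active = gene knockdowns whose robust z-score for IL-1 alpha signal is at least 2 or at most -2, so actives lie on both sides; inactive = the rest.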 Some of the results follow.

assay: Components of the Cytosolic LPS Sensing Pathway: Gene Identification via Genome-wide siRNA Screen; details: RAW264.7 macrophages, IL-1a HTRF, actives lie on both sides, screened at 100 nM (by protocol), cells primed 5 h with Pam3CSK4 first
Excerpt: Non-canonical inflammasome activation by cytosolic LPS is a critical component of the host response to Gram-negative bacterial infection, however we lack a comprehensive understanding of the cellular processes that control this pathway. Here we describe a genome-wide siRNA screen to identify genes regulating the mouse macrophage IL-1 alpha response to cytosolic LPS.
RAW264.7 cells were maintained in complete DMEM media, comprising DMEM with 4.5 g/L glucose, 10% FBS (Gemini Bio-Products, West Sacramento, CA), 2 mM Glutamine (Lonza) and 20 mM HEPES (Lonza), hereafter complete DMEM.
The RNAi screen was conducted in 384-well format using the Ambion Silencer Mouse Genome siRNA Library (#4391425), which consists of three unique, nonoverlapping, nonpooled siRNAs for each of 17,000 gene targets. siRNA reagents ([…]) were stamped into 384-well white flat-bottom microplates (Corning, 3570) using a Velocity11 VPrep liquid handling system (Agilent) integrated into a BioCel robotic platform (Agilent) in columns 1-22, leaving columns 23-24 empty for negative (Ambion, Negative control #1) and positive (mouse Casp4) controls, respectively. The median value of each plate's negative control column was used to normalize sample wells, and the positive control was used to assess transfection efficiency and assay performance.
Lipofectamine RNAiMAX Transfection Reagent ([…]; Invitrogen) was added in […] serum-free, antibiotic-free media to plate wells using a Thermo Scientific Matrix WellMate and Microplate Stacker. Plates were incubated for 45 min at room temperature to allow for the sufficient formation of siRNA-lipid complexes. Cells were seeded at a density of 1x10^4 cells per well in 20 microL media containing 20% (vol/vol) FBS without antibiotics. The final concentration of siRNA in each well was 100 nM. Cells were cultured for 48h at 37 degrees C in 5% CO2 before addition of […] of TLR ligand Pam3CSK4 for 5 hours. The medium was then removed, replaced with […] growth media and cell were transfected with […] of LipidA and TransIT-TKO (Mirus) for 24 hour. At the end of the LipidA treatment, […] of supernatant was transferred to a 384 Greiner Bio-one non-binding low volume plate and […] of IL-1a HTRF reagent (Cisbio, 62MIL1APEH) was added and incubated at room temperature overnight. The plates were read on an EnVision plate reader (PerkinElmer). Cell viability was measured by adding 20ul Cell Titer Glo to the original plate and running a luminescence read on the EnVision. The quantified IL-1a signal for each siRNA gene-targeted well was divided by the median of the negative control wells and multiplied by 100 to achieve a negative control normalized value for each well/siRNA. This normalized value was then used to generate a robust z-score by first taking the log of each value and then by subtracting the median and dividing by the […].

| Sequence | z-score |
| --- | --- |
| GGCAAUGGAGUUUCAAUUUTT against Stard5 | inactive: -0.0861 |
| CGAAGUGAAAAGUAUGACCTT against Lrrc72 | inactive: -0.083 |
| GGCAACAGACAAACAGCCGTT against Ugcg | inactive: -1.54 |
| GGCUUUUGAAAAGUUCACATT against Rnf32 | active: -2.05 |
| GGAGCUUAAAGUGAGCGGCTT against Lage3 | inactive: -0.859 |
| GGAAACACCUUUGAGGCUCTT against Kndc1 | inactive: -1.88 |
| CGAGAUAAACCAUACCUGGTT against Zfp61 | inactive: 1.72 |
| CGCCCUUGGAGGUUAAUCATT against Nsg2 | inactive: 0.26 |
| GCCUCUGAGAUAAAAUUUGTT against Klf6 | inactive: -1.53 |
| GGCUGUAUAAAUCAGAUUATT against 1600012H06Rik | inactive: 1.37 |
| GGCGGUCAAAUACAAAAGGTT against Pde1a | inactive: 0.553 |
| GCUGAGUGAUCGAUCUUAATT against Golt1a | inactive: 1.95 |
| CCUCAACUGGUUCCCUAACTT against Spatc1 | inactive: -1.73 |
| CCAGUUGGAAAUAUGACGATT against Fryl | inactive: -0.184 |
| GGGUUUGAGGAAGUUAAGATT against Slc5a3 | inactive: -0.555 |
| GCUCAAAGCUUAUGAUUUCTT against Commd2 | inactive: 0.334 |
| CCUCUGGUCUCUUAGAAAGTT against Fxn | inactive: 0.163 |
| GGCUGAGGCUGUGAAGAAGTT against Igfbp5 | inactive: -0.659 |
| GCUCUUAGGGAAGAAUAUUTT against Arnt | inactive: -0.862 |
| GGCCAGAUAGCAAAACAGCTT against Mpst | inactive: 0.897 |
| GGAAUUCGGUUUCAGCUUCTT against Hax1 | inactive: -0.354 |
| GGUAAAGUUGCUUAAUUAGTT against Msl3l2 | inactive: 0.944 |

Exported with each value named: part of the list above.
GGAGCUUAAAGUGAGCGGCTT against Lage3
  z-score: inactive: -0.859
CGAGAUAAACCAUACCUGGTT against Zfp61
  z-score: inactive: 1.72
GCUGAGUGAUCGAUCUUAATT against Golt1a
  z-score: inactive: 1.95

2 successive entries already listed:

| Sequence | z-score |
| --- | --- |
| GGCCAGAUAGCAAAACAGCTT against Mpst | inactive: 0.897 |
| GGAAUUCGGUUUCAGCUUCTT against Hax1 | inactive: -0.354 |

The listing continues.

| Sequence | z-score |
| --- | --- |
| GGAGAUUGAACAGUCAAACTT against Pex5 | active: 3.01 |
| GGAUAUUGAUGCAUACUUUTT against Noc3l | inactive: 0.907 |
| GGUUUGCUGAAUGUCAUUUTT against Magea2 | inactive: -1.54 |
| GGUGUAUGGAUUUUAUGAUTT against Ppp6c | inactive: -1.11 |
| CGGUAUCUCAACUUUUACATT against Stra8 | inactive: 0.685 |
| GGAUGAAACAAGUGAAGAUTT against Papola | inactive: -1.07 |
| GAAUGAACUGCUGAAAAAGTT against Klra16 | inactive: 0.462 |
| GCUUAUAGGCCUAUAUGCCTT against Inppl1 | inactive: -0.571 |
| CCUUAUUUCGAGCUGUGAATT against Smim8 | inactive: -1.15 |
| GGGUUUGUGUUUAGUGAAUTT against Mindy3 | inactive: -1.89 |
| GGAUGACAUUUCAGUGUGGTT against Matn4 | inactive: 0.561 |
| GCCAGUGAUGGAAUUGUAATT against Rrm2b | inactive: -0.457 |
| GGUGUUGUCUUACAUUAAUTT against Esam | inactive: -0.0651 |
| GAAGAAGGAAAAAAACCCATT against Sec61b | inactive: -1.19 |
| GGUGUUUGGGAAAGGUCUGTT against Trpm1 | inactive: -1.33 |
| GGACAACCAAAUUCUCAAGTT against Olfml3 | inactive: 0.377 |
| GGAAUUUAAACUGAAGGAUTT against Fkbp9 | inactive: 0.271 |
| GCCUCAAAAUGGCGGAACUTT against Casp8 | inactive: -0.249 |
| GGAAAUCUGAGUGUGCACUTT against Pcdhgb1 | inactive: 1.45 |
| GGAUUUACCAAGUCUAUUGTT against Ccdc174 | inactive: 0.238 |
| GGUUCUAUGCUGAAGGUCATT against Lhfpl2 | inactive: 0.358 |
| GCCAAAUAUUAGCGCGAAGTT against Mgp | inactive: 0.888 |

| Sequence | z-score |
| --- | --- |
| CGGAACACCAAUAAGAGAATT against Hgd | inactive: -0.667 |
| GGAAAUCACCAUCCUUCGUTT against Map4k2 | inactive: 0.443 |
| GGUCCCAGCUGUUAUAAGUTT against Foxi2 | inactive: 0.861 |
| GGACAAAACCUCAGUUGAUTT against Bves | inactive: 1.05 |
| GCCCUGGUUCCUAACCAAUTT against Nudt12 | inactive: 0.0896 |
| CCAUAAACAAUCACUUGUATT against Ccnf | inactive: -0.953 |
| GGAUUGAAGAGCUUAACAATT against Mta1 | inactive: 0.155 |
| GCUCAAGAGUCUAACUCCCTT against Serinc4 | inactive: 0.558 |
| GGGCUUCCUUCAGAAGAGUTT against Slc38a3 | inactive: 0.652 |
| CCAGGGUAUAGUUUUCAACTT against Zfp940 | inactive: -0.41 |
| GGCCGAAGAAGUCUUCGAUTT against Cavin4 | inactive: -0.0667 |
| GGACUAGAGAAAGUGUGCATT against Egf | inactive: 0.728 |
| GGUUAUUUUUAGCUUCAGUTT against Lrpprc | inactive: -0.0769 |
| GGAAGAGGAGAGGAAGAAGTT against Dync1i1 | inactive: 1.91 |
| GGAGUGCGUCUUUGAGAAUTT against Fgf11 | inactive: -0.0446 |
| GCAUGUGGUACAGAUAGCUTT against Kif24 | inactive: 0.683 |
| CGUAUUGACAGUGGAAAUCTT against Gpr12 | inactive: 0.423 |
| GUCCGAGUAGGUGAUACAATT against Jaml | inactive: 0.727 |
| GGAAACAACGGAUCCAAAATT against Plcb3 | inactive: 1.33 |
| GGGAUCCAAUCAAGAAGUATT against Lmcd1 | inactive: -1.01 |
| CCUUGAUUGAGCCUGACUUTT against Hook2 | inactive: 0.543 |
| GGAAAAAGAUGUCCUAUCUTT against Rufy2 | inactive: -1.08 |

| Sequence | z-score |
| --- | --- |
| CGGACAGUAUCACAAUCGUTT against Mrpl42 | inactive: 1.42 |
| GCAGCAAUGGUUUAACACCTT against Smim14 | inactive: 0.431 |
| GGUGAUAAAGGCUGGAGUGTT against Wnt9a | inactive: 0.0973 |
| GGGACAGAGAAUGAAGAUGTT against Tnfrsf21 | inactive: -1.04 |
| CCUACUCAUUUGAAUCAAGTT against Itih2 | inactive: 1.8 |
| GCCGCGUUUUGACUGAUCATT against Usp24 | inactive: -1.82 |
| GGUAUUUAUCUGAAUCUGATT against Dennd2c | inactive: 0.668 |
| CGAAGCCAUAAAUUUCAUATT against Aldh3a2 | inactive: 0.554 |
| GCCUGUUGCUAUGAAUGGUTT against Zfp597 | inactive: -0.353 |
| GGUGAAUAACUGCUCUAUCTT against Zp1 | inactive: -0.205 |
| AUUUGGUUGCCUUACAACUTT against Olfr868 | inactive: -0.94 |
| GGCAUAGGAGGAUUCUCUUTT against Slc15a4 | inactive: -0.536 |
| CCGAGAUAUGAAUCAAAUUTT against Wars | active: 2.19 |
| GGAGAAACUUCGAGAUAGATT against Isoc2b | inactive: -1.39 |
| GCCUUAUCUAAAAGCCAAGTT against Ckap2l | inactive: 0.664 |
| GGUGGAAUGAUAGUGUUCATT against Neurl1b | inactive: 1.67 |
| GGGAAAAAGAACAAAAGCATT against Aarsd1 | inactive: -0.344 |
| CCAAUGGGAACAGUCCUGATT against Cela2a | inactive: -0.832 |
| GGUCAAGCUUAAAAAACCCTT against Dennd6b | inactive: -1.75 |
| GGUUGAAUAGCACUGGGACTT against Slitrk5 | inactive: -1.35 |
| GGAGCACAACAUUUUUAUGTT against Atp6v0d2 | inactive: 0.0663 |
| CAUCCCGCAUUCCAGUUACTT against Rgs3 | inactive: 0.823 |

| Sequence | z-score |
| --- | --- |
| GCUUUUCAUACCUGUUUCCTT against 9930111J21Rik2 | inactive: -0.227 |
| CGAUUAUGACCUGAUCAUATT against Serpinb13 | inactive: 0.999 |
| GGUGUUAAUGAGGACACUUTT against Slc25a22 | inactive: -0.337 |
| GGGCUUCUUACCAGUCAGATT against Nuf2 | inactive: -0.0662 |
| GGUGAGACUAUAAAGAUAATT against Piwil4 | inactive: 0.841 |
| GGAGGUUAUACCAACCUUUTT against Mcm4 | inactive: -0.0511 |
| GCUUGUUCAGGAAAUGAAATT against Tmcc3 | inactive: -1.15 |
| GCUUAACGAGCCUUAGAAATT against Btf3l4 | inactive: -0.468 |
| GCUACAGGAUAAGUCCAAUTT against Kpnb1 | active: -2.01 |
| GAAAUCAUCCUGCCCAAAGTT against Vax1 | inactive: 0.874 |
| GAAUAGAAGGGAAGAAAGUTT against Crb3 | active: -2.08 |
| GGAAGUGUUUGAUGUUCUUTT against Gtf2ird1 | inactive: 0.0156 |
| CGGCACCUUCUACACAUCATT against Sirt2 | inactive: -1.41 |
| GCAAAUCAUACCUACCGGCTT against Cuzd1 | inactive: 0.278 |
| GGUGCUGAUCUUGAACUACTT against Slc22a6 | inactive: 1.7 |
| GGCACUCCUCAAUAUAGAUTT against Elf1 | inactive: 0.267 |
| GAAGAUGUACAGAUUUUCCTT against Tomm22 | inactive: 0.616 |
| GGAGAGACGCGCUAUUAUATT against Bub1b | inactive: 0.934 |
| GGAAGUUCAACACCUCCAGTT against Lrrc45 | inactive: -1.82 |
